Data reported in patent US20170369589A1 (INBIOMOTION S L, published 2017).
These are yes or no findings as the source states them, for the method shown. Some entries that bind do so weakly or less than the wild type. No end group written: not given here.

Sequences of proteins named here, by UniProt entry; tags and fusion partners are left off.
UniProt O75444: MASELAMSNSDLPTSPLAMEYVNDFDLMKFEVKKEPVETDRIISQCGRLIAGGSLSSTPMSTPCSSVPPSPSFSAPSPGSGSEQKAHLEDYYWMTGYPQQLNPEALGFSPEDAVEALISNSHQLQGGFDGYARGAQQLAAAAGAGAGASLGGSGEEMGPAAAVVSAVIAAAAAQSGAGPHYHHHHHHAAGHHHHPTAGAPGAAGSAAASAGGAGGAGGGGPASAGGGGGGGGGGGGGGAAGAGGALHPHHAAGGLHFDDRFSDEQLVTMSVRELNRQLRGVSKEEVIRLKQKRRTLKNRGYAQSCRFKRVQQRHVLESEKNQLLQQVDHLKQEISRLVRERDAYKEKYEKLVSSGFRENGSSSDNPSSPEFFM

Columns and labels:
[1] = molecular target: endogenous c-MAF isoforms (including post translational modified proteins) and its degradation forms (human) (UniProt O75444); experiment: western blot of whole cell lysates, antibody at 1:50 dilution
[2] = molecular target: recombinantly expressed short human c-MAF isoform (human) (UniProt O75444); experiment: as above
[3] = molecular target: endogenous c-MAF isoforms (including post translational modified proteins) and its degradation forms (human) (UniProt O75444); experiment: immunohistochemistry on primary breast cancer tissue sections
[4] = molecular target: recombinantly expressed short human c-MAF isoform (human) (UniProt O75444); experiment: western blot of whole cell lysates, antibody at 1:50, tubulin as loading control

binding [1]: binds
binding [2]: binds
binding [3]: binds
binding [4]: binds
B1: INB-1-11-8 c-MAF specific monoclonal antibody (rabbit) (antibody, V domains shown)
VH: QSLEESGGRLVTPGTPLTLTCTASGFSLNNYPMTWVRQAPGKGLDYIGVINNSGETAYATWAKRRFTISRTSTTLYLKIASPTIEDTATYFCARGGPVSSDMWGPGTLVIVSS
VL: AQVLTQTASPVSAVVGGTVTINCQSSQSVYRGDWLAWYQQRPGQPPKLLIYGASTLASGVPSRFKGSGSGTHFTLTISDLDCDDAATYYCAGGFSGHIYDFGGGTEVVVKG
notes: Rabbit monoclonal antibody; also called Clone ID11-8; antibody INB-1-11-8
